Results are given in words; binding and its absence hold for the method and conditions named. Binding seen in cells or lysates may run through a third protein. A yes stands for co-enrichment or nearness to the bait. Other partners may have been found. One block for each binder: values may come before it.
Target: Gm364 (mouse) (UniProt A2AFI6)
Experiment: affinity purification with mass spectrometry; anti-Gm364 antibody IP against control IgG IP from oocyte lysate, SDS-PAGE, silver staining, distinct bands cut out, MALDI-TOF peptide mass fingerprinting (Mascot)

Chains of the proteins cited; added tags and fusions are not shown. Lines headed by an entry give the natural chain unless they say otherwise; changes in a name come on top.
UniProt A2AFI6: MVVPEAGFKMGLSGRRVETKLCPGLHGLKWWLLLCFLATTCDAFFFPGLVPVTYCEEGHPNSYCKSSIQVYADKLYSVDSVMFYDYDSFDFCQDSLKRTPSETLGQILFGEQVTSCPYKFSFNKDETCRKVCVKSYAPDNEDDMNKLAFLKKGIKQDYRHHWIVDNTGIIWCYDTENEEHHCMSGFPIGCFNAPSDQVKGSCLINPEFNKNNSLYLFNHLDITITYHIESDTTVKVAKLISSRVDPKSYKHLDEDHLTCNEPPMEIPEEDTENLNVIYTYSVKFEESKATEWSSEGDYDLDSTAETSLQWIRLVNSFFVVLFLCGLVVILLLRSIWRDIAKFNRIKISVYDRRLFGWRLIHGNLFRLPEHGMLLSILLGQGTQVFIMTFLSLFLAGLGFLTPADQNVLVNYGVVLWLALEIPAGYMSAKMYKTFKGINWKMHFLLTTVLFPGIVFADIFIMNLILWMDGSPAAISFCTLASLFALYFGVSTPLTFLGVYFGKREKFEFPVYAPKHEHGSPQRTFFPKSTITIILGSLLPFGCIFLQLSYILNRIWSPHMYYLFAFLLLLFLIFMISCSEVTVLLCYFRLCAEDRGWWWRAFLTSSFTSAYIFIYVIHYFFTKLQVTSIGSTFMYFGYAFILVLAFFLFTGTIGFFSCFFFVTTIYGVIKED

- binding: binds
B1: MIB2 (enzyme, UniProt Q8R516 1-973)
chain: MDLDPHAGVQVGMRVVRGMDWKWGQQDGGEGGVGTVVELGRHGSPSTPDRTVVVQWDQGTRTNYRAGYQGAHDLLLYDNAQIGIRHPNIICDCCKKHGLRGMRWKCRVCFDYDLCTQCYMHNKHDLTHAFERYETSHSRPVTLSPRQGLPRIPLRGIFQGAKVVRGPDWEWGSQDGGEGKTGRVVDIRGWDVETGRSVASVTWADGTTNVYRVGHKGKVDLRCVGEAAGGFYYKEHLPKLGKPAELQRRVSADGQPFQRGDKVKCLLDTDVLRDMQEGHGGWNPRMAEFIGQMGTVHRITDRGDVRVQFNHETRWTFHPGALTKHNSFWVGDVVRVIGDLDTVKRLQAGHGEWTDDMAPALGRVGKVVKVFGDGNLRVAVGGQRWTFSPSCLVAYRPEEDANLDVAERARENKSAASVSVAGSLSVALDKLRTQKSDPEHPGRLVVEAALGNVARALDLLRRHPEQASYHPALVVDTKNQGRTALQVAAYLGQVELVRLLLQARASMDLPDDEGNTVLHYTAMGNQPEATRVLLSAGCAVDARNGTRSTALHVAVQRGFLEVVKILCERGCDVNLPDAHADTPLHSAISAGAGASSIVEVLTEVPGIDVTATNSQGFTLLHHASLKGHVLAVRKILARARQLVDAKKEDGFTALHLAALNNHREVAQVLIREGRCDVNVRNRKLQSPLHLAVQQAHLGLVPLLVDAGCSVNTEDEEGDTALHVALQRHQLLPLVADRAGGDPGPLQLLSRLQASGLPGCTELTVGAAVACFLALEGADVSYANHRGRSPLDLATEGRVLKALQGCAQRFRERQAGGGGGVPPGPRHVLSTPNTVTNLHVSGTAGPEAAECLVCSELALLILFSPCQHRTVCEECARRMKKCIRCQVVISKKLRPDGSEVVNAIQVPGPPRQLVEELQSRYRQMEERITCPICIDSHIRLVFQCGHGACAPCGAALNACPICRQPIRDRIQIFV

- binding: binds
B2: GRAMD1A (protein, UniProt Q8VEF1 1-722)
chain: MFDTTPHSGRSSPSSSPSLRKRLQLLPPIRPPPASEPEPGTMVEKGSDSSSEKSGVSGTLSTQSLGSRNFIRNSKKMQSWYSMLCPTYKQRNEDFRKLFSKLPEAERLIVDYSCALQREILLQGRLYLSENWICFYSNIFRWETTISIQLKEVTCLKKEKTAKLIPNAIQICTESEKHFFTSFGARDRCFLLIFRLWQNALLEKTLSPRELWHLVHQCYGSELGLTSEDEDYVCPLQLNGLGSPKEVGDVIALSDISPSGAADHSQEPSPVGSRRGRVTPNLSRASSDADHGAEEDKEEQTDGLDASSSQTVTPVAEPLSSEPTPPDGPTSSLGPLDLLSREELLTDTSNSSSSTGEEGDLAALLPDLSGRLLINSVFHMGAERLQQMLFSDSPFLQGFLQQRKFTDVTLSPWSSDSKCHQRRVLTYTIPISNQLGPKSASVVETQTLFRRGPQAGGCVVDSEVLTQGIPYQDYFYTAHRYCILGLARNKARLRVSSEIRYRKQPWSLVKSLIEKNSWSGIEDYFHHLDRELAKAEKLSLEEGGKDTRGLLSGLRRRKRPLSWRGHRDGPQHPDPDPCTQTSMHTSGSLSSRFSEPSVDQGPGAGIPSALVLISIVLIVLIALNALLFYRLWSLERTAHTFESWHSLALAKGKFPQTATEWAEILALQKHFHSVEVHKWRQILRASVELLDEMKFSLEKLHQGITVPDPPLDTQPQPDDSFP
